Reference: publication PMC7187271
These are yes or no findings as the source states them, for the method shown. In cells and extracts the contact can be indirect. Here binding means that the protein was enriched with, or labelled near, the bait; the list need not be complete.

T1: biotin-labeled 7-aa peptide 7A (MHSPGAD) (mouse)
T1 sequence (peptide, biotin on the N-terminus): MHSPGAD

T2: biotin-labeled 7Ap peptide (MH[pSer]PGAD, synthetically phosphorylated serine residue) (mouse)
T2 sequence (peptide, phosphoserine (MH[pSer]PGAD); biotin on the N-terminus): MHSPGAD

T3: biotin-labeled 7Aa peptide (7-aa peptide with a serine substituted with an alanine, MHAPGAD) (mouse)
T3 sequence (peptide, biotin on the N-terminus): MHAPGAD


Columns and labels:
Experiment in all cases: affinity purification with mass spectrometry; biotin-labeled peptide with lysate of VEGF-treated/untreated Sca1+-VPCs, streptavidin beads, eluate on SDS-PAGE followed by proteomics analysis (pilot study); only the target purified
[1] = biological target: T1, biotin-labeled 7-aa peptide 7A (MHSPGAD) (mouse)
[2] = biological target: T2, biotin-labeled 7Ap peptide (MH[pSer]PGAD, synthetically phosphorylated serine residue) (mouse)
[3] = biological target: T3, biotin-labeled 7Aa peptide (7-aa peptide with a serine substituted with an alanine, MHAPGAD) (mouse)

Row | binding [1] | binding [2] | binding [3] | Binder
1 | binds | binds |  | p120 protein (CTNND1) (protein, UniProt P30999 1-938) MDDSEVESTASILASVKEQEAQFEKLTRALEEERRHVSAQLERVRVSPQDANSLMANGTLTRRHQNGRFVGDADLERQKFSDLKLNGPQDHNHLLYSTIPRMQEPGQIVETYTEEDPEGAMSVVSVETTDDGTTRRTETTVKKVVKTMTTRTVQPVPMGPDGLPVDASAVSNNYIQTLGRDFRKNGNGGPGPYVGQAGTATLPRNFHYPPDGYGRHYEDGYPGGSDNYGSLSRVTRIEERYRPSMEGYRAPSRQDVYGPQPQVRVGGSSVDLHRFHPEPYGLEDDQRSMGYDDLDYGMMSDYGTARRTGTPSDPRRRLRSYEDMIGEEVPPDQYYWAPLAQHERGSLASLDSLRKGMPPPSNWRQPELPEVIAMLGFRLDAVKSNAAAYLQHLCYRNDKVKTDVRKLKGIPILVGLLDHPKKEVHLGACGALKNISFGRDQDNKIAIKNCDGVPALVRLLRKARDMDLTEVITGTLWNLSSHDSIKMEIVDHALHALTDEVIIPHSGWEREPNEDCKPRHIEWESVLTNTAGCLRNVSSERSEARRKLRECDGLVDALIFIVQAEIGQKDSDSKLVENCVCLLRNLSYQVHREIPQAERYQEALPTVANSTGPHAASCFGAKKGKDEWFSRGKKPTEDPANDTVDFPKRTSPARGYELLFQPEVVRIYISLLKESKTPAILEASAGAIQNLCAGRWTYGRYIRSALRQEKALSAIAELLTSEHERVVKAASGALRNLAVDARNKELIGKHAIPNLVKNLPGGQQNSSWNFSEDTVVSILNTINEVIAENLEAAKKLRETQGIEKLVLINKSGNRSEKEVRAAALVLQTIWGYKELRKPLEKEGWKKSDFQVNLNNASRSQSSHSYDDSTLPLIDRNQKSDKKPDREEIPMSNMGSNTKSLDNNYSTLNERGDHNRTLDRSGDLGDMEPLKGAPLMQKI
2 |  |  | binds | phosphorylated MEKK1 (phospho-MEKK1 Ser393) (enzyme, UniProt P53349 1-1493, phosphoserine at 393) MAAAAGDRASSSGFPGAAAASPEAGGGGGGGGALQGSGAPAAGAAGLLREPGSAGRERADWRRRQLRKVRSVELDQLPEQPLFLAAASPPCPSTSPSPEPADAAAGASRFQPAAGPPPPGAASRCGSHSAELAAARDSGARSPAGAEPPSAAAPSGREMENKETLKGLHKMEDRPEERMIREKLKATCMPAWKHEWLERRNRRGPVVVKPIPIKGDGSEVNNLAAEPQGEGQAGSAAPAPKGRRSPSPGSSPSGRSVKPESPGVRRKRVSPVPFQSGRITPPRRAPSPDGFSPYSPEETSRRVNKVMRARLYLLQQIGPNSFLIGGDSPDNKYRVFIGPQNCSCGRGAFCIHLLFVMLRVFQLEPSDPMLWRKTLKNFEVESLFQKYHSRRSSRIKAPSRNTIQKFVSRMSNSHTLSSSSTSTSSSENSIKDEEEQMCPICLLGMLDEESLTVCEDGCRNKLHHHCMSIWAEECRRNREPLICPLCRSKWRSHDFYSHELSSPVESPASLRAVQQPSSPQQPVAGSQRRNQESSFNLTHFGTQQIPSAYKDLAEPWIQVFGMELVGCLFSRNWNVREMALRRLSHDVSGALLLANGESTGNSGGGSGGSLSAGAASGSSQPSISGDVVEACCSVLSIVCADPVYKVYVAALKTLRAMLVYTPCHSLAERIKLQRLLRPVVDTILVKCADANSRTSQLSISTVLELCKGQAGELAVGREILKAGSIGVGGVDYVLSCILGNQAESNNWQELLGRLCLIDRLLLEFPAEFYPHIVSTDVSQAEPVEIRYKKLLSLLTFALQSIDNSHSMVGKLSRRIYLSSARMVTAVPAVFSKLVTMLNASGSTHFTRMRRRLMAIADEVEIAEVIQLGVEDTVDGHQDSLQAVAPTSCLENSSLEHTVHREKTGKGLSATRLSASSEDISDRLAGVSVGLPSSTTTEQPKPAVQTKGRPHSQCLNSSPLSHAQLMFPAPSAPCSSAPSVPDISKHRPQAFVPCKIPSASPQTQRKFSLQFQRNCSEHRDSDQLSPVFTQSRPPPSSNIHRPKPSRPVPGSTSKLGDATKSSMTLDLGSASRCDDSFGGGGNSGNAVIPSDETVFTPVEDKCRLDVNTELNSSIEDLLEASMPSSDTTVTFKSEVAVLSPEKAENDDTYKDDVNHNQKCKEKMEAEEEEALAIAMAMSASQDALPIVPQLQVENGEDIIIIQQDTPETLPGHTKAKQPYREDAEWLKGQQIGLGAFSSCYQAQDVGTGTLMAVKQVTYVRNTSSEQEEVVEALREEIRMMGHLNHPNIIRMLGATCEKSNYNLFIEWMAGGSVAHLLSKYGAFKESVVINYTEQLLRGLSYLHENQIIHRDVKGANLLIDSTGQRLRIADFGAAARLASKGTGAGEFQGQLLGTIAFMAPEVLRGQQYGRSCDVWSVGCAIIEMACAKPPWNAEKHSNHLALIFKIASATTAPSIPSHLSPGLRDVAVRCLELQPQDRPPSRELLKHPVFRTTW
3 | binds | binds |  | 14-3-3 gamma protein (protein, UniProt P61982 1-247) MVDREQLVQKARLAEQAERYDDMAAAMKNVTELNEPLSNEERNLLSVAYKNVVGARRSSWRVISSIEQKTSADGNEKKIEMVRAYREKIEKELEAVCQDVLSLLDNYLIKNCSETQYESKVFYLKMKGDYYRYLAEVATGEKRATVVESSEKAYSEAHEISKEHMQPTHPIRLGLALNYSVFYYEIQNAPEQACHLAKTAFDDAIAELDTLNEDSYKDSTLIMQLLRDNLTLWTSDQQDDDGGEGNN
